Test results published in publication PMC4460860.
These are yes or no findings as the source states them, for the method shown. In cells and extracts the contact can be indirect. Some entries that bind do so weakly or less than the wild type. Sequences can lack the tags named with a protein.

Chains of the proteins cited; added tags and fusions are not shown.
UniProt Q8CIV2: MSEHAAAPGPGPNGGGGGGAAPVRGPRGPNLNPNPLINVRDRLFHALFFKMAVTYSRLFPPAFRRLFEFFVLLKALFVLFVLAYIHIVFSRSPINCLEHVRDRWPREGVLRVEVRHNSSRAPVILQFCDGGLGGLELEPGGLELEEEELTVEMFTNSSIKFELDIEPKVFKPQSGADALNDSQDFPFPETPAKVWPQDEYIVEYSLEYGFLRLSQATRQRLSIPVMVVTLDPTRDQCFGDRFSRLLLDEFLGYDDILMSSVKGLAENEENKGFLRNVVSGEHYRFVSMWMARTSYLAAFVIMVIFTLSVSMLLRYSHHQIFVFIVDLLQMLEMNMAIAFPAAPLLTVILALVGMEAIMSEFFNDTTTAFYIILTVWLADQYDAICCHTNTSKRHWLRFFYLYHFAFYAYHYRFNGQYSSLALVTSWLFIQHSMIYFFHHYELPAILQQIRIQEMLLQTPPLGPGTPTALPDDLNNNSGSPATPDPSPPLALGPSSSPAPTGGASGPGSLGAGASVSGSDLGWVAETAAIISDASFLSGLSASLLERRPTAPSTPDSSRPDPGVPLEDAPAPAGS

Target: membralin-myc (mouse) (UniProt Q8CIV2)
Assay: co-IP; membralin-myc and Erlin2-HA co-transfected in HEK 293 cells (legend: HEK 293T); lysates collected 48 hr after transfection; immunoprecipitated with anti-Myc or IgG (negative control), immunoblotted with anti-Erlin2

B1: Erlin2-HA (protein, UniProt Q8BFZ9 1-340)
chain: MAQLGAVVAVASSFFCASLFSAVHKIEEGHIGVYYRGGALLTSTSGPGFHLMLPFITSYKSVQTTLQTDEVKNVPCGTSGGVMIYFDRIEVVNFLVPNAVYDIVKNYTADYDKALIFNKIHHELNQFCSVHTLQEVYIELFDQIDENLKLALQQDLTSMAPGLVIQAVRVTKPNIPEAIRRNYELMESEKTKLLIAAQKQKVVEKEAETERKKALIEAEKVAQVAEITYGQKVMEKETEKKISEIEDAAFLAREKAKADAECYTALKIAEANKLKLTPEYLQLMKYKAIASNSKIYFGKDIPNMFMDSAGGLGKQFEGLSDDKLGFGLEDEPLEAPTKEN
binding: binds
